From PMC9931111
The exact form of at least one protein or probe is not confirmed. Tags and fusion partners may be left off the protein sequences shown.

How the values were obtained:
[1] = target: T1, NIN C-terminal half, His-tagged (Lotus japonicus) (UniProt Q9S7B1); experiment: competition with a labelled probe; settings: unlabeled self competitor, 2- and 10-fold; 1 nM Cy5 DNA; 20 mM Tris pH 7.5, 5% glycerol, 10 mM MgCl2, 0.25 mM DTT, 0.8 ug BSA, 1 ug salmon sperm DNA in 20 uL; 30 C 20 min; 6% native PAGE in TBE at 4 C; recombinant protein; protein details: C-terminal His; label: 5' Cy5; probe letters rebuilt from the primers and the genome
T1 sequence (looked up, limits assumed): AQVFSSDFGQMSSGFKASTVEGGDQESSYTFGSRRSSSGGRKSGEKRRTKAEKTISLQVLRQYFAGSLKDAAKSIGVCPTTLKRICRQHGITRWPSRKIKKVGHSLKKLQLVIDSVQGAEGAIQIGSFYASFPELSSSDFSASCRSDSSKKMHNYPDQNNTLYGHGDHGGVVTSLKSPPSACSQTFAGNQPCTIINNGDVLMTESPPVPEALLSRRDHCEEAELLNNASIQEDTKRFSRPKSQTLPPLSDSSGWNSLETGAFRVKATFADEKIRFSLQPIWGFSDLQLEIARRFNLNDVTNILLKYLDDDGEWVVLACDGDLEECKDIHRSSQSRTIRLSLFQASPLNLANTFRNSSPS

[2] = target: T1, NIN C-terminal half, His-tagged (Lotus japonicus); experiment: EMSA; settings: 1 nM Cy5 DNA; 20 mM Tris pH 7.5, 5% glycerol, 10 mM MgCl2, 0.25 mM DTT, 0.8 ug BSA, 1 ug salmon sperm DNA in 20 uL; 30 C 20 min; 6% native PAGE in TBE at 4 C; recombinant protein; protein details: C-terminal His; label: 5' Cy5; probe letters rebuilt from the primers and the genome

Row | Sequence | binding result [1] | binding result [2]
1 | AGCCAGTGGCGATAAGTAGACTGCAATAACTTCAGAAGGGGACGTAACTTTTGATTTGTGGTGTTCATGCGGTCCAATTATACAAGTTTTGGTCATTTGGGTAAGTTTCTTCTTCTTCCTTTTCAGTTCCTTGAAAGATCGAGGATTATAAGGAAGACAAATTCATAAACTGCATTAAAAAAGTTTTATACTCAGAATTGTGTGTTGTAAAGGACTTATCGCCACTGGCT (double strand) [RPG promoter S1] | binds | binds
2 | AGCCAGTGGCGATAAGATACAACTATGTGCCATAAACTATAATTGAAAAATTTAAAATGAGCATGCATAATTAGATCATGTAAATTAAACTTAAAAATAACTTAATAGTTTACATTAACTTATTATAACTGATGTTCATAACAGGATCATAATCCTTTCAATTGCTAAAAACATTAACCATGTGAATTAAAGTTTCATCACCAGTTTAACCTTATCGCCACTGGCT (double strand) [RPG promoter S2] | binds | binds
